## Primary screen of a compound library

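Whole-cell assay for inhibitors of Mycobacterium tuberculosis growth, labelled Cornell in the record; the read-out is not stated. The concentration is filed as 10 mM, unlikely as a test dose, so the dose is not known. The record gives no direction; compounds strong in two other growth screens of this library score well above the rest, so higher reads as stronger inhibition. Of about 53,000 compounds tested this way, about 900 (1.7%) reached 50% or more in at least one test.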

Each number is a percent effect as filed. How 0% and 100% were set is not recorded. Most values in the screen are low, and negative values occur. Compounds were drawn at random from those tested, without regard to their results.

structure | effect
Cc1ncccc1O[C@H]1CCN(C(=O)c2cccs2)CC[C@@H]1O | -2.201%
O=C(O)C(F)(F)F.O=C(O)C(F)(F)F.[H][C@@]12CN(CC3CC3)C[C@]1([H])OCCN2c1ccc(C)nn1 | 9.264%
Cn1nc(C#N)c2c1CN(C(=O)c1c[nH]cn1)CCC2 | -7.934%
CCS(=O)(=O)N1CCC(c2nnc(CN3CCOCC3)n2C)CC1 | 13.57%
COc1cccc(C(CO)NC(=O)Cc2ccc(F)c(Br)c2)c1 (stereo not given) | -35.81%
COc1nc2ccn(CCc3cc(O)nc(C)n3)c(=O)c2cc1C#N | 1.159%
O=C(NC[C@]1(O)CN(Cc2ccccc2F)C[C@H]1O)c1cscn1 | 5.36%
O=C1NCCN1CCNc1cc(-c2ccccc2)nc2ccnn12 | 9.239%
CC(C)c1nccn1C(C)C(=O)N1CCN(S(C)(=O)=O)CC1 (stereo not given) | 20.94%
CN(C)Cc1cn2c(n1)CN(C(=O)Cc1ccsc1)CC2.O=C(O)C(F)(F)F | 11.21%
Cc1ccc(CN2CCOC3(COCCN(S(C)(=O)=O)C3)C2)o1.O=C(O)C(F)(F)F (stereo not given) | 12.91%
Cc1ccsc1-c1nc(CN(C)Cc2cc[nH]n2)c(C)o1 | -7.053%
Cc1noc(C)c1CN1CCC2(CC1)C(c1cnn(C)c1)CC(=O)N2C.O=C(O)C(F)(F)F (stereo not given) | -1.438%
CC(C)c1nc(CN(C)Cc2ccc(O)c(Cl)c2)cs1 | 21.83%
CC(C)CNC(=O)c1cc2c(s1)CCN2Cc1cccnc1 | 24.5%
O=C(O)C(F)(F)F.[H][C@@]12CCC(CNC(=O)c3ccco3)[C@@]1([H])OCCN2Cc1cccs1 (stereo not given in full) | -28.49%
Cc1ccc(C(=O)NC2CCCN(C)C2)c(=O)[nH]1 (stereo not given) | 10.22%
O=C1OCCN1CCOc1nc(-c2ccccc2Cl)no1 | -8.896%
O=C(NCCC(O)c1cccs1)c1ccc(Br)o1 (stereo not given) | -27.04%
CC(C)(C)C(=O)N1CCN(C(=O)Nc2cnn(CC(F)F)c2)CC1 | 4.276%
CC(C(=O)NCC1(c2cccc(Br)c2)CCC1)S(C)(=O)=O (stereo not given) | 8.911%
Cc1ccc2c(n1)N(C)CCN(C(=O)NC(C)C)C2.O=C(O)C(F)(F)F | 23.35%
c1coc(-c2noc(CN3CCCC(Cn4cncn4)C3)n2)c1 (stereo not given) | -1.947%
O=C(O)C(F)(F)F.O=C(c1ccc[nH]1)N1CCC2(CCCN2Cc2cccnc2)CC1 | 11.73%
CC(C)C1CN(C(=O)c2ccc(N3CCCC3)nc2)CCS1 (stereo not given) | 33.76%
Cc1occc1C(=O)N1CCCC2(CCN(c3ccsc3)C2=O)C1 (stereo not given) | 18.66%
[H][C@@]12COC[C@]1(c1nc(C)no1)CN(C(=O)COCC)C2 | -6.447%
Cc1ccc(C(=O)O)cc1CNC(=O)CN1CC(C)(C)[C@@](C)(O)C1 | 9.746%
CC(C)(C)C1CCC(NCCN2CCOCC2)CC1 (stereo not given) | 16.21%
CCCOC1CCCN(c2ncnc3c2CCN(C(=O)C2CC2)C3)C1 (stereo not given) | 7.67%
O=C(O)c1cnc(OCC2CC2)c(Br)c1 | 31.46%
O=C(C1CC2(CCNCC2)CN1)N1CCN(c2ccccc2)CC1 (stereo not given) | -26.31%
Cc1cccc(C)c1CN1C(=O)CC2(CCSC2)C1=O (stereo not given) | -1.403%
[H][C@@]12CNC(=O)N1CCN(Cc1nccs1)C2 | 9.211%
CCC(=O)N1CCc2nc(N3CCOCC3)nc(N(C)C)c2CC1 | -30.6%
Cc1nc(CN2CCN(S(=O)(=O)N3CCOCC3)CC2)oc1C | -9.018%
CN1CCN(C[C@H]2CC[C@@H](Cc3ccc(CN4CCCC4)cc3)O2)CC1 | 6.116%
CC(C)N1CCN(c2ccc3ccc(C(=O)NC4CCCC4)cn23)CC1.O=C(O)C(F)(F)F | -33.3%
O=S(=O)(c1cccs1)N1Cc2nc(COCC3CC3)oc2C1 | 1.103%
CC(C)c1cc(C(=O)N2CCOC3(CCNCC3)C2)no1.O=C(O)C(F)(F)F | -13.1%
COc1ccc2oc(C(C)NC(=O)NC3CCN(C)CC3)c(C)c2c1 (stereo not given) | 14%
CN(C)C(=O)c1cncnc1-c1ccc(CNC(=O)C2CCCO2)cc1 (stereo not given) | -18.39%
Cc1nc(CN2CCCC(c3nc(C)n4c(C)c(C)sc34)C2)co1 (stereo not given) | -50.67%
Cc1ccc2c(c1)[C@@H](CC(=O)N1CCN(C)CC1)CCO2 | 10.66%
COc1ccc(F)c(CN2CCC(c3cc(O)nc(C)n3)C2)c1.O=C(O)CC(O)(CC(=O)O)C(=O)O (stereo not given) | -10.24%
Cc1nc(CN(C)C2CCN(Cc3sc(C)nc3C)C2)no1 (stereo not given) | -31.91%
Cc1ccc(NC(=O)NCCc2cnn(C)c2)c(N(C)C)n1 | -0.4649%
Cn1cc(-c2csc(N3CCN(C(=O)OC(C)(C)C)CC3)n2)cn1 | 78.03%
O=C(c1cccc(C2CCNC2)c1)N1CCC(N2CCC(O)CC2)CC1 (stereo not given) | -12.25%
COCCOc1ncccc1-c1noc([C@@H]2CCCN2C2CCC2)n1 | 6.717%
Cc1cn2c(=O)c(-c3ccnc(N[C@@H]4CCOC4)n3)cnc2s1 | 14.28%
CCOC(=O)N(C)C1CCN(Cc2ccsc2)CC1 | -24.06%
COC(=O)CC(c1ccc(OC)c(O)c1)c1oc(C)cc(=O)c1O (stereo not given) | 18.75%
CNC(=O)NC(=O)CN1CCCC(Cc2ccccc2OC)C1 (stereo not given) | -6.29%
CN(C)CCNC(=O)c1sc2ccccc2c1C1CCC(CN)CC1.Cl (stereo not given) | 10.31%
Cc1cccc(CN2CCCC3(CCN(CC4CCCO4)CC3)C2)n1.O=C(O)C(F)(F)F.O=C(O)C(F)(F)F (stereo not given) | -7.205%

Source: ChEMBL document CHEMBL3988442, “University of Dundee, Small-Polar-MMV Screening Library” (2021).